Some peptides are written in HELM: one residue between dots, names in brackets for other building blocks, links after the first $.
Assay: general procedure: Fmoc solid-phase peptide synthesis
Conditions: lipidation step

With “PEPTIDE1{[Dend2x12].G.D.G.E.E.G.A.S.R.H.E.Y.E.G.K.E.A.E}$$$$V2.0” the step yield was 48% yield.

In the case of “PEPTIDE1{[Dend2x12].G.D.G.R.E.G.A.S.E.H.E.Y.E.G.K.E.A.E}$$$$V2.0”, the step yield is reported as 50% yield.

Work on “PEPTIDE1{[Dend4x7].G.D.G.E.E.G.A.S.R.G.E.Y.E.G.K.E.A.E}$$$$V2.0” yielded a step yield of 51%.

With “PEPTIDE1{[Dend4x7].G.D.G.E.E.G.A.S.R.H.E.Y.E.G.K.E.A.E}$$$$V2.0” the step yield was 26% yield.

“PEPTIDE1{[Dend4x7].G.D.G.R.E.G.A.S.E.H.E.Y.E.G.K.E.A.E}$$$$V2.0” gave a step yield of 40% yield.

Reference: PMC8397319 (2021)
